# Source: publication PMC6071530
# Protein sequences, listed by entry. Tags and fused reporters are not part of them.
# UniProt P26447: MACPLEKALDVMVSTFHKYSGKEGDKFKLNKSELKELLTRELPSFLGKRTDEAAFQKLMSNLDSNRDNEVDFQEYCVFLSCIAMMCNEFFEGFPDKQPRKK
# These are yes or no findings as the source states them, for the method shown.
# Target: ErbB2-Fc (UniProt P04626)
# Assay: SPR; BIAcore 2000; 2000 RU of ErbB/Fc chimera immobilized covalently on a CM4 chip; S100A4 or peptides as analyte; apparent affinities calculated from binding kinetics; both purified
substance,measurement,value
Recombinant human S100A4 (from UniProt P26447 1-101),binding,no binding
